Data: the supplement of paper PMC12819154, “High-throughput peptide-centric local stability assay extends protein–ligand identification to membrane proteins, tissues and bacteria” (Nature Structural & Molecular Biology, 2025)
The other results are listed elsewhere or left out. Most values lie at the level of the controls, where differences are scatter.

Protein sequences, listed by entry. Tags and fused reporters are not part of them. Lines headed by an entry give the natural chain unless they say otherwise; changes in a name come on top.
UniProt O15254: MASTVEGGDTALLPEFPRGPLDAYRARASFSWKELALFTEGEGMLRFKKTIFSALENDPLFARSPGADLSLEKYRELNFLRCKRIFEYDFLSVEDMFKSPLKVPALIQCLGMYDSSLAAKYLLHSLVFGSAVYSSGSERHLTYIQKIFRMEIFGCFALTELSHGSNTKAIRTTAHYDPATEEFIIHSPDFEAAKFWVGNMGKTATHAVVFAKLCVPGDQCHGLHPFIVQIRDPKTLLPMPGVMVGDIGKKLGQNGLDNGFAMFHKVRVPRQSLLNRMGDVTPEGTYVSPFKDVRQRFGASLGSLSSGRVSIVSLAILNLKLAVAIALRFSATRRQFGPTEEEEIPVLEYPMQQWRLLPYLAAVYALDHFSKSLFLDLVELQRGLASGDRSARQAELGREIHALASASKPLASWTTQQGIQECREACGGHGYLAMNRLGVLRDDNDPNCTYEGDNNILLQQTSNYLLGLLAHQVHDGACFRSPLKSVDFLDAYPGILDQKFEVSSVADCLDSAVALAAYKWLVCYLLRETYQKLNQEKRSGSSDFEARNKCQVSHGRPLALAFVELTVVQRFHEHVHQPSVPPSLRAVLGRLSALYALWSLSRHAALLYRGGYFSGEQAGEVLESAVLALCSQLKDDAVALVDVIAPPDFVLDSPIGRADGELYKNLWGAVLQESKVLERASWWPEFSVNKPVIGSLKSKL
UniProt O15269: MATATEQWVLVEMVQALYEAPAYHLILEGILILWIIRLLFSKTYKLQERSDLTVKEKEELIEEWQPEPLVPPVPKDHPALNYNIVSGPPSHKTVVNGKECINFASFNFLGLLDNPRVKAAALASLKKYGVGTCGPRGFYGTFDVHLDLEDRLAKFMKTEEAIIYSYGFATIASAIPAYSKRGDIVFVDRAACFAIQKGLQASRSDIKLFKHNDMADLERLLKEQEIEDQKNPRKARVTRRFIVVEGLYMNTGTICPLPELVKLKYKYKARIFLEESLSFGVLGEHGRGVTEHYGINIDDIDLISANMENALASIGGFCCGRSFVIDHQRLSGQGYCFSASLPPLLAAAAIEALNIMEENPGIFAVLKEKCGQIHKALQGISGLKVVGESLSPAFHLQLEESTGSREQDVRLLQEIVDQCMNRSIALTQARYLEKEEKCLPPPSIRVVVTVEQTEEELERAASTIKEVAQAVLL
UniProt O15304: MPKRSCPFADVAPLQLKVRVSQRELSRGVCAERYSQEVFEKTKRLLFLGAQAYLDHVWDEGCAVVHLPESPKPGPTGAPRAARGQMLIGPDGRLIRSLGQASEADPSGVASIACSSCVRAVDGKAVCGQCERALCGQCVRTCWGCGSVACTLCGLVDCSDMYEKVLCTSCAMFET
UniProt O00287: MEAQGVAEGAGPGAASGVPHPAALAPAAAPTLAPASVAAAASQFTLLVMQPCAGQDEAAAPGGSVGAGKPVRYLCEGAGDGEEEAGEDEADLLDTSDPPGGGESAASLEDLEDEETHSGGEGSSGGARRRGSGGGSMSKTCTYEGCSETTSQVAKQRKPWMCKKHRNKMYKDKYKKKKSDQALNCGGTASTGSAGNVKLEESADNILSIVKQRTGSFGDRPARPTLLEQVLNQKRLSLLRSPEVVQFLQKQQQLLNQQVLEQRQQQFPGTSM
UniProt O00418: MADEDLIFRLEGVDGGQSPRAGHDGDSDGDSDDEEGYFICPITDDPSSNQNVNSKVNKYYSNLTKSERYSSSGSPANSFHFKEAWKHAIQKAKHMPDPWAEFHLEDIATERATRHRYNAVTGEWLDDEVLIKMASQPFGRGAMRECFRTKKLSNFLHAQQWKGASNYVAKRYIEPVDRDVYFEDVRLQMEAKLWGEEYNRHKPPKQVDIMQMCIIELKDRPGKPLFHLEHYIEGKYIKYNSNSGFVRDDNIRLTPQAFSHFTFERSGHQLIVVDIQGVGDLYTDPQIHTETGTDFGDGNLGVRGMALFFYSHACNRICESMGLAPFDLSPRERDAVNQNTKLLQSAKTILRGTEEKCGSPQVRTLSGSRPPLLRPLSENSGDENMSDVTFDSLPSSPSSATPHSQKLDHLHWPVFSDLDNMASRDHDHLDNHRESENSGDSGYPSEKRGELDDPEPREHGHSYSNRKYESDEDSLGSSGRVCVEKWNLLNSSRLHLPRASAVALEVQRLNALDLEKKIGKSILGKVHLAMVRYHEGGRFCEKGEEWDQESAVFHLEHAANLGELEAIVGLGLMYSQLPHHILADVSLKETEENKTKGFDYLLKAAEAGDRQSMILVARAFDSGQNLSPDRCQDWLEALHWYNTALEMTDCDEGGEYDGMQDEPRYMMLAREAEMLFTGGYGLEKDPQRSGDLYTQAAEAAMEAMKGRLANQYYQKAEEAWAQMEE
UniProt A6NGE4: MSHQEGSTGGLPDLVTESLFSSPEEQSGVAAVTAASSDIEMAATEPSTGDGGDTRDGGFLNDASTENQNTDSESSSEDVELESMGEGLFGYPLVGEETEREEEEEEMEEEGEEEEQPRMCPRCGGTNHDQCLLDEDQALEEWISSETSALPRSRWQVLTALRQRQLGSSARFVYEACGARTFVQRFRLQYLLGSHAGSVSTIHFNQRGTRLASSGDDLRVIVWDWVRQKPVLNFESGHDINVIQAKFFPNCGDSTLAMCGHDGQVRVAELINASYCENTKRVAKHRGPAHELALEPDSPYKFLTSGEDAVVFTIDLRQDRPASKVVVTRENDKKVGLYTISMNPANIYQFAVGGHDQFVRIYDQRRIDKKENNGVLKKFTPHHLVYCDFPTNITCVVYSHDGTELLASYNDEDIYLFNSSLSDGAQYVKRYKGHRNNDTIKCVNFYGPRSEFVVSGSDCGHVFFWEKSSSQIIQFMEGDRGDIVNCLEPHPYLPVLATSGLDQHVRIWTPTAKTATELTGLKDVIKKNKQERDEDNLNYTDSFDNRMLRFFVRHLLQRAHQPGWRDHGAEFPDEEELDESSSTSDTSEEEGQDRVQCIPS
UniProt O15020, whole entry: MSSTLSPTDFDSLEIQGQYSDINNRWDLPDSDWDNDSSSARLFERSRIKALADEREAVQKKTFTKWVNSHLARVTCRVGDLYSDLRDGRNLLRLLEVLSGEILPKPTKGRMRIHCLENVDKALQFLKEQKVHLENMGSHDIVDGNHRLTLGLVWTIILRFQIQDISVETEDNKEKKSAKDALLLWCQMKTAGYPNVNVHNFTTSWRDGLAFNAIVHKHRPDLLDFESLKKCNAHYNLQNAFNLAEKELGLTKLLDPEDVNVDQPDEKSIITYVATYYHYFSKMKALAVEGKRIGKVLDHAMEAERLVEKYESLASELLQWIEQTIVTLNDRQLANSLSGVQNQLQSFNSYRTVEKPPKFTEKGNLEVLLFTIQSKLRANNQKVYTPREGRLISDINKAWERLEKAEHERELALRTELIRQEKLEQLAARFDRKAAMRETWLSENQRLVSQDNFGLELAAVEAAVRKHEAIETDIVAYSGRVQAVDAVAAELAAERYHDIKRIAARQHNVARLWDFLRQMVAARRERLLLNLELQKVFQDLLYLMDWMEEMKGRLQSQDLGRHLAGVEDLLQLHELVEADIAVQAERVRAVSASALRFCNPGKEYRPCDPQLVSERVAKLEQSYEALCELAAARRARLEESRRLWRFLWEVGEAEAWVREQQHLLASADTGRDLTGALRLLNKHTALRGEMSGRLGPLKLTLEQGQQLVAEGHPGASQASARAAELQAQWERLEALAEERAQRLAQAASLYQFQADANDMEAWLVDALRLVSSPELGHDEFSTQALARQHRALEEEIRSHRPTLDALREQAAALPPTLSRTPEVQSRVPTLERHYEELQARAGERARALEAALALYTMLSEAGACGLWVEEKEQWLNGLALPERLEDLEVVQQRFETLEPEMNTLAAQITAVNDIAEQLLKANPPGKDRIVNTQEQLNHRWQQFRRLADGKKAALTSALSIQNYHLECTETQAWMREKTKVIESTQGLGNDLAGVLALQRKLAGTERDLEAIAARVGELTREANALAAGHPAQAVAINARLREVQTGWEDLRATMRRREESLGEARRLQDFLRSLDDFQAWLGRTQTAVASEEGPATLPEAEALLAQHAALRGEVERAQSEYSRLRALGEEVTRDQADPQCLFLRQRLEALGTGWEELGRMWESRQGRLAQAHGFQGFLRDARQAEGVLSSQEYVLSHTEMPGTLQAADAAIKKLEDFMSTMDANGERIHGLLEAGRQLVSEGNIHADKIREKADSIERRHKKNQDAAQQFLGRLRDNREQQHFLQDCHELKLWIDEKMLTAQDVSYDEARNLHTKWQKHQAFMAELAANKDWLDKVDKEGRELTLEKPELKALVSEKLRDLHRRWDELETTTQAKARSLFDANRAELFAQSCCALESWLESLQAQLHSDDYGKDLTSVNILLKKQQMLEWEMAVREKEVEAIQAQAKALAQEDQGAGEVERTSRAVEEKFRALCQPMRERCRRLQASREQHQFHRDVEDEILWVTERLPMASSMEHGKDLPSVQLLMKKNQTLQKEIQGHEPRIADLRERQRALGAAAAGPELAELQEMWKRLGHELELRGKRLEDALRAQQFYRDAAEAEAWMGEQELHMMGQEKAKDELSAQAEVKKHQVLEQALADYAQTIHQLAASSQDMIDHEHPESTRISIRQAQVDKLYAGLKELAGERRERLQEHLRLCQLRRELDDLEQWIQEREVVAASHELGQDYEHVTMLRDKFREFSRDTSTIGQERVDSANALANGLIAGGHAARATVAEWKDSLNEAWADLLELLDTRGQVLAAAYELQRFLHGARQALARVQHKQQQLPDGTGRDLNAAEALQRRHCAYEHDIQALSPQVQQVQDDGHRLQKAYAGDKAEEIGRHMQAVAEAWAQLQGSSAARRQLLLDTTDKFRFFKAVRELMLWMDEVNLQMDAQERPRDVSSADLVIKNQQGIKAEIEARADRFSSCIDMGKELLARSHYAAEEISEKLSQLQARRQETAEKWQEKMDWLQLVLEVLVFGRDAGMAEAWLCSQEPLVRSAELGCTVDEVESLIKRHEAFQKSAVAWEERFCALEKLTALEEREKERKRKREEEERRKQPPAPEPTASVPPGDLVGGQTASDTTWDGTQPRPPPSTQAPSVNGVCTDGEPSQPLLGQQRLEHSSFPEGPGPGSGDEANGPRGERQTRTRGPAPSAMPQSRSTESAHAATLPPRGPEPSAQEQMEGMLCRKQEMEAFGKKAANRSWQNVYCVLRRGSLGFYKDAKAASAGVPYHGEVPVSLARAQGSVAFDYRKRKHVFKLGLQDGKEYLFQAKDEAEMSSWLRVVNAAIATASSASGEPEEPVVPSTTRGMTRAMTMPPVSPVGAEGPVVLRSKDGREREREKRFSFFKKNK
UniProt O15155: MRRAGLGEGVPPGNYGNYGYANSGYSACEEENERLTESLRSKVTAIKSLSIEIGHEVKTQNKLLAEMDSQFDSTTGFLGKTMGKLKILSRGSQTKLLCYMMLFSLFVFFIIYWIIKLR
UniProt O00221: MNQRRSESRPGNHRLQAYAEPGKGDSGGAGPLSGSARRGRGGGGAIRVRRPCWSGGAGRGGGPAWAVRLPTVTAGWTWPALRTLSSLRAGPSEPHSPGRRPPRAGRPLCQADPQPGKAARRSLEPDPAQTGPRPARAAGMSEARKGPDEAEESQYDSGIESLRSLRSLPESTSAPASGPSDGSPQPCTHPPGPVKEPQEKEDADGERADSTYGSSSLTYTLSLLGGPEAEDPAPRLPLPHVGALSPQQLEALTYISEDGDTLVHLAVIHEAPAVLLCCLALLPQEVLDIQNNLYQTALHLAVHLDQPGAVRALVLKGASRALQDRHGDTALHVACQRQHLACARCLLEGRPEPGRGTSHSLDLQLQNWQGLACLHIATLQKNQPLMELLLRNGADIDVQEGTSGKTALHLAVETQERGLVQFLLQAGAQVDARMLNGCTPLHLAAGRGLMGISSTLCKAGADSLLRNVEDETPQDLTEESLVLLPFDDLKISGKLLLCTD
UniProt O00232: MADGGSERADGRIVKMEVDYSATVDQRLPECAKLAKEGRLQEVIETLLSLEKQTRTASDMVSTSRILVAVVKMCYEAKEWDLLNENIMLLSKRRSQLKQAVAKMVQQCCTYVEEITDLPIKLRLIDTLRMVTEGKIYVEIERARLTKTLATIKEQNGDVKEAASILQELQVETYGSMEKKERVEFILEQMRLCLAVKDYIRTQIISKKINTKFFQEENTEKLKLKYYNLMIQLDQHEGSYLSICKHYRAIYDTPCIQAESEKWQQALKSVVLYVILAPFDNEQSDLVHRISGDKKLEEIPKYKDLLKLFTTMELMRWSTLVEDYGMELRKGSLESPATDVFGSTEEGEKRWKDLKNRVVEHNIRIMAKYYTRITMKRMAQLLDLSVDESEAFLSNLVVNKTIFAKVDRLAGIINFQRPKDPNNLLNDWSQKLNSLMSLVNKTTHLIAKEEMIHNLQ
UniProt O00483, whole entry: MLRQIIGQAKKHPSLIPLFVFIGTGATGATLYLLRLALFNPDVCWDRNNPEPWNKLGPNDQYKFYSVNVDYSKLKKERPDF

Each target was assayed with CN[C@@H]1C[C@H]2O[C@@](C)([C@@H]1OC)n1c3ccccc3c3c4c(c5c6ccccc6n2c5c31)C(=O)NC4 [staurosporine] (assay: log2 fold change of tryptic peptide abundance, ligand vs vehicle (limited proteolysis) (log2 ratio); higher = more trypsin-susceptible (destabilized)). Details: ligand concentration: 20 uM; sample: K562 cleared lysate; digestion: 4 min, 22 C (HT-PELSA RT4min, Orbitrap Astral).

Q: Which log2 fold change does the source give for “ANKRD36 (peptide sequence: CLYLLDR, peptide start residue: 433) (UniProt A6QL64)” here?
A: 0.323

Q: Which log2 fold change does the source give for “ACOX3 (peptide sequence: TLLPMPGVMVGDIGKK, peptide start residue: 235) (UniProt O15254)” here?
A: -0.716

Q: For “UniProt O15040 (peptide sequence: VHVQQAEKLPGATVSETR, peptide start residue: 375)”, which log2 fold change is on record?
A: -0.503

Q: With “SPTLC1 (peptide sequence: GDIVFVDR, peptide start residue: 182) (UniProt O15269)” as the target, how does the log2 fold change read?
A: -0.226

Q: Which log2 fold change does the source give for “ACOT8 (peptide sequence: LPVLYQVER, peptide start residue: 92) (UniProt O14734)” here?
A: -0.0247

Q: Which log2 fold change does the source give for “SIVA1 (peptide sequence: AVCGQCER, peptide start residue: 125) (UniProt O15304)” here?
A: -1.01

Q: For “RFXANK (peptide sequence: VQQVIENHILK, peptide start residue: 238) (UniProt O14593)”, which log2 fold change is on record?
A: 0.182

Q: With “RFXAP (peptide sequence: QQQLLNQQVLEQR, peptide start residue: 251) (UniProt O00287)” as the target, how does the log2 fold change read?
A: 0.168

Q: With “OGT (peptide sequence: AFLDSLPDVK, peptide start residue: 743) (UniProt O15294)” as the target, how does the log2 fold change read?
A: 0.167

Q: For “UniProt O14966 (peptide sequence: LQLWDIAGQER, peptide start residue: 77)”, which log2 fold change is on record?
A: 0.219

Q: “BTAF1 (peptide sequence: EQEAGVLAMDALHR, peptide start residue: 1481) (UniProt O14981)” was tested. Which log2 fold change did it give?
A: -0.208

Q: With “EEF2K (peptide sequence: YYSNLTK, peptide start residue: 59) (UniProt O00418)” as the target, how does the log2 fold change read?
A: -0.112

Q: With “UniProt O15315 (peptide sequence: LILQYLDSERR, peptide start residue: 308)” as the target, how does the log2 fold change read?
A: -0.172

Q: For “UniProt A6NGE4 (peptide sequence: KENNGVLKK, peptide start residue: 402)”, which log2 fold change is on record?
A: 0.476

Q: How did the log2 fold change turn out when “TNFRSF10A (peptide sequence: NASIHTLLDALER, peptide start residue: 422) (UniProt O00220)” was run?
A: -0.074

Q: With “SPTBN2 (peptide sequence: GPAPSAMPQSR, peptide start residue: 2188) (UniProt O15020)” as the target, how does the log2 fold change read?
A: 0.317

Q: “BET1 (peptide sequence: SLSIEIGHEVK, peptide start residue: 48) (UniProt O15155)” was tested. Which log2 fold change did it give?
A: 0.00283

Q: How did the log2 fold change turn out when “NFKBIE (peptide sequence: HGDTALHVACQR, peptide start residue: 326) (UniProt O00221)” was run?
A: 0.14

Q: “UniProt O14972 (peptide sequence: SVELQLVR, peptide start residue: 208)” was tested. Which log2 fold change did it give?
A: -0.224

Q: For “CEP290 (peptide sequence: MTDEYNR, peptide start residue: 253) (UniProt O15078)”, which log2 fold change is on record?
A: -0.511

Q: “DFFA (peptide sequence: KTETVQEACER, peptide start residue: 281) (UniProt O00273)” was tested. Which log2 fold change did it give?
A: -0.188

Q: Which log2 fold change does the source give for “PSMD12 (peptide sequence: EWDLLNENIMLLSK, peptide start residue: 79) (UniProt O00232)” here?
A: 0.249

Q: Which log2 fold change does the source give for “NDUFA4 (peptide sequence: FYSVNVDYSK, peptide start residue: 64) (UniProt O00483)” here?
A: -0.0771

Q: For “WASL (peptide sequence: KAVTDLLGR, peptide start residue: 132) (UniProt O00401)”, which log2 fold change is on record?
A: 0.759

Q: Which log2 fold change does the source give for “UniProt A6NFQ7 (peptide sequence: KRTMFTK, peptide start residue: 19)” here?
A: 0.0586
